Laboratory results from PMC6188063.
Results are given in words; binding and its absence hold for the method and conditions named. In cells and extracts the contact can be indirect. Some binding calls cover weakened binding; strength is not graded here.

Sequences of proteins named here, by UniProt entry; tags and fusion partners are left off. Residues count along the entry.
UniProt P35570: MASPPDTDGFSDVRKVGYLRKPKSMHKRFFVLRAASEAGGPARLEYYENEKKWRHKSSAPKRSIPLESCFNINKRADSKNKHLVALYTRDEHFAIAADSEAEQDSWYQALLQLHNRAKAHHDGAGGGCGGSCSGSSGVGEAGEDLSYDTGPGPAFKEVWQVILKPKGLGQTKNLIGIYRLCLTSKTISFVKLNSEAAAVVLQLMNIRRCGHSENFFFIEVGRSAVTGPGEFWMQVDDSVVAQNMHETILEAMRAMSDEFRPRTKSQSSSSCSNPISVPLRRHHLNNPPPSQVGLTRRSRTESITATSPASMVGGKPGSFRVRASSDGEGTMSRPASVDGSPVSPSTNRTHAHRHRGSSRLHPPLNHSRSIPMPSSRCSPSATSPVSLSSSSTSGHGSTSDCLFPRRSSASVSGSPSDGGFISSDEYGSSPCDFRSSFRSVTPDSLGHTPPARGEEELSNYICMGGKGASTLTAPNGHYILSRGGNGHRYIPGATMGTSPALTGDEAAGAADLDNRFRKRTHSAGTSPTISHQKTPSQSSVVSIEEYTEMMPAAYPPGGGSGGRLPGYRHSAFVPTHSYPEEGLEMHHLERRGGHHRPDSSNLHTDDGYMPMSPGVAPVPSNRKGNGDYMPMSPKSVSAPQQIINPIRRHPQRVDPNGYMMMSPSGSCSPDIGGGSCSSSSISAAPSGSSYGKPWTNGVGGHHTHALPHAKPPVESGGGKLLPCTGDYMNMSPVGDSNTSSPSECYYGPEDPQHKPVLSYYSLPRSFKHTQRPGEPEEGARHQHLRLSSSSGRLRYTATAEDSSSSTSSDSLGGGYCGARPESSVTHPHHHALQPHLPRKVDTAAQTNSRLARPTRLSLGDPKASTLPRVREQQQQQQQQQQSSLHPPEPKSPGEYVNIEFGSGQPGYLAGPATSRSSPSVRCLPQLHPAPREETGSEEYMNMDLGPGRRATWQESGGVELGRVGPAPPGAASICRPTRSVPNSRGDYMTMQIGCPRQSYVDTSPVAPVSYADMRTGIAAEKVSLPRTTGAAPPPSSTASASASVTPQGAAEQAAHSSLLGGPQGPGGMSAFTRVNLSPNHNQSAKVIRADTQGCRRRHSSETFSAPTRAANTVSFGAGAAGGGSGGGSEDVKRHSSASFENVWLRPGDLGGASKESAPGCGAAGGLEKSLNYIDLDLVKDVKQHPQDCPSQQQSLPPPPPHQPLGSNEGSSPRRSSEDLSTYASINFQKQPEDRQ
UniProt P08069, residues 31-1367: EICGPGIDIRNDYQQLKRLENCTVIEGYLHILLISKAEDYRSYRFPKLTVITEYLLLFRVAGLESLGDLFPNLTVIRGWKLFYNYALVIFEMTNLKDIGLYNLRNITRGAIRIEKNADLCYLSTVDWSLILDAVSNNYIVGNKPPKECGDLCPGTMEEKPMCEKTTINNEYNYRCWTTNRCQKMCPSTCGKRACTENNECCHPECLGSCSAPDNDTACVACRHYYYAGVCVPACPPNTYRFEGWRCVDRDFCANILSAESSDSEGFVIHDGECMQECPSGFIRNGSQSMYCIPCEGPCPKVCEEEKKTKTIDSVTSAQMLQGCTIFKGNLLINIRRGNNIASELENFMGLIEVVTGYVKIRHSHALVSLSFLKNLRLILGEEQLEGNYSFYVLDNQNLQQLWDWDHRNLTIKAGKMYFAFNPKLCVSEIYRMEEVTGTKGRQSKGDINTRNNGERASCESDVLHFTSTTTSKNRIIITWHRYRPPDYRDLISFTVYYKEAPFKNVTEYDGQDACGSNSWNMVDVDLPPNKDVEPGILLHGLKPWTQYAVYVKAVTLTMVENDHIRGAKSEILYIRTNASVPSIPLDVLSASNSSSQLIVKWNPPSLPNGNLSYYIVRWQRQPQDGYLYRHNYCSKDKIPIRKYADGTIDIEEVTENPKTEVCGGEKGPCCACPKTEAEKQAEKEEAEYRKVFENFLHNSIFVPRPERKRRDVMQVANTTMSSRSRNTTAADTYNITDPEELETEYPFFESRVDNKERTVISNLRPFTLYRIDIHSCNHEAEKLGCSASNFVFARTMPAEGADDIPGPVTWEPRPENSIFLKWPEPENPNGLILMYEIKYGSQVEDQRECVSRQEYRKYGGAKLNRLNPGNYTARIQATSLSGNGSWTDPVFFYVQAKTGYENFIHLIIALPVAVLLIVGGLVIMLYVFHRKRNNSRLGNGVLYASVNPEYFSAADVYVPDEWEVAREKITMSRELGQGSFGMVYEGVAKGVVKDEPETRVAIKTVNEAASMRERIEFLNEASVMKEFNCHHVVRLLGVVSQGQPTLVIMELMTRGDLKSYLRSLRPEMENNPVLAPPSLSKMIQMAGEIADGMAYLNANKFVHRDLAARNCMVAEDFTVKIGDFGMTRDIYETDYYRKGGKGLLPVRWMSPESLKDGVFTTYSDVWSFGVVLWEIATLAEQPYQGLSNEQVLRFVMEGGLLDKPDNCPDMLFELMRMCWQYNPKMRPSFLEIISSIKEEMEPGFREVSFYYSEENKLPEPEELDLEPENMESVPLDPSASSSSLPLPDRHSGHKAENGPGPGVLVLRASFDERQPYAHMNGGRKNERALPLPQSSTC
UniProt P35568: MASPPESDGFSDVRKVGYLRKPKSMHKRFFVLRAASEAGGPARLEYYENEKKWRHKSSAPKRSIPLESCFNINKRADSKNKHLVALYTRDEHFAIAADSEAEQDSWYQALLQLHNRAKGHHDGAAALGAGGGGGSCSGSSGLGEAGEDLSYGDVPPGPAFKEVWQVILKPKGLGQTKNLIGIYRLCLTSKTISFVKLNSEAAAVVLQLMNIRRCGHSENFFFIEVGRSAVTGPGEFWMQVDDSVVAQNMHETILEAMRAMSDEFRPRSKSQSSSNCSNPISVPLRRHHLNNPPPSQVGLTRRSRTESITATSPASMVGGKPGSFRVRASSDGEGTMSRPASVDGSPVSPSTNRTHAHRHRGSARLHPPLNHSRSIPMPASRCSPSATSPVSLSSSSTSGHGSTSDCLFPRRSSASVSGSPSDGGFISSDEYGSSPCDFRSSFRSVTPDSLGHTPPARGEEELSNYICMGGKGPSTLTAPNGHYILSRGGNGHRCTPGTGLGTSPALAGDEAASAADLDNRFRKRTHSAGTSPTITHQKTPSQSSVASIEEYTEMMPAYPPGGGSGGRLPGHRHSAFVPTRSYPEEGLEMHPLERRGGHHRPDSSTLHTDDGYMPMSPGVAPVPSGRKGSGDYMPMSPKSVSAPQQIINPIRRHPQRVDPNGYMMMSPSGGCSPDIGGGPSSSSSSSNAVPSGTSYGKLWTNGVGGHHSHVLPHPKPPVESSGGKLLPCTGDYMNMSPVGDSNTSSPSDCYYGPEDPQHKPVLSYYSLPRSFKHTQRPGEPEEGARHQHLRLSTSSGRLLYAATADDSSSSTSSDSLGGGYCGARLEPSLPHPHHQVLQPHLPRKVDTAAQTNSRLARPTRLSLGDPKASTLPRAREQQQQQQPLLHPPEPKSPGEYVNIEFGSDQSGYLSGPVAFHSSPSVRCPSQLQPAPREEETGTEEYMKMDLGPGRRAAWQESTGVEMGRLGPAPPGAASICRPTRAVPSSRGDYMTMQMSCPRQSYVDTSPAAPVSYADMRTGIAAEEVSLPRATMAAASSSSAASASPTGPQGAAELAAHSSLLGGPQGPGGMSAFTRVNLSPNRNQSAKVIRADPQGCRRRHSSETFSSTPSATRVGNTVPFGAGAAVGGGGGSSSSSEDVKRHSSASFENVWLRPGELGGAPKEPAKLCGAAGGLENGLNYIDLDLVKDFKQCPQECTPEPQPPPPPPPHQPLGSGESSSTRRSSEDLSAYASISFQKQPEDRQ
UniProt Q93008: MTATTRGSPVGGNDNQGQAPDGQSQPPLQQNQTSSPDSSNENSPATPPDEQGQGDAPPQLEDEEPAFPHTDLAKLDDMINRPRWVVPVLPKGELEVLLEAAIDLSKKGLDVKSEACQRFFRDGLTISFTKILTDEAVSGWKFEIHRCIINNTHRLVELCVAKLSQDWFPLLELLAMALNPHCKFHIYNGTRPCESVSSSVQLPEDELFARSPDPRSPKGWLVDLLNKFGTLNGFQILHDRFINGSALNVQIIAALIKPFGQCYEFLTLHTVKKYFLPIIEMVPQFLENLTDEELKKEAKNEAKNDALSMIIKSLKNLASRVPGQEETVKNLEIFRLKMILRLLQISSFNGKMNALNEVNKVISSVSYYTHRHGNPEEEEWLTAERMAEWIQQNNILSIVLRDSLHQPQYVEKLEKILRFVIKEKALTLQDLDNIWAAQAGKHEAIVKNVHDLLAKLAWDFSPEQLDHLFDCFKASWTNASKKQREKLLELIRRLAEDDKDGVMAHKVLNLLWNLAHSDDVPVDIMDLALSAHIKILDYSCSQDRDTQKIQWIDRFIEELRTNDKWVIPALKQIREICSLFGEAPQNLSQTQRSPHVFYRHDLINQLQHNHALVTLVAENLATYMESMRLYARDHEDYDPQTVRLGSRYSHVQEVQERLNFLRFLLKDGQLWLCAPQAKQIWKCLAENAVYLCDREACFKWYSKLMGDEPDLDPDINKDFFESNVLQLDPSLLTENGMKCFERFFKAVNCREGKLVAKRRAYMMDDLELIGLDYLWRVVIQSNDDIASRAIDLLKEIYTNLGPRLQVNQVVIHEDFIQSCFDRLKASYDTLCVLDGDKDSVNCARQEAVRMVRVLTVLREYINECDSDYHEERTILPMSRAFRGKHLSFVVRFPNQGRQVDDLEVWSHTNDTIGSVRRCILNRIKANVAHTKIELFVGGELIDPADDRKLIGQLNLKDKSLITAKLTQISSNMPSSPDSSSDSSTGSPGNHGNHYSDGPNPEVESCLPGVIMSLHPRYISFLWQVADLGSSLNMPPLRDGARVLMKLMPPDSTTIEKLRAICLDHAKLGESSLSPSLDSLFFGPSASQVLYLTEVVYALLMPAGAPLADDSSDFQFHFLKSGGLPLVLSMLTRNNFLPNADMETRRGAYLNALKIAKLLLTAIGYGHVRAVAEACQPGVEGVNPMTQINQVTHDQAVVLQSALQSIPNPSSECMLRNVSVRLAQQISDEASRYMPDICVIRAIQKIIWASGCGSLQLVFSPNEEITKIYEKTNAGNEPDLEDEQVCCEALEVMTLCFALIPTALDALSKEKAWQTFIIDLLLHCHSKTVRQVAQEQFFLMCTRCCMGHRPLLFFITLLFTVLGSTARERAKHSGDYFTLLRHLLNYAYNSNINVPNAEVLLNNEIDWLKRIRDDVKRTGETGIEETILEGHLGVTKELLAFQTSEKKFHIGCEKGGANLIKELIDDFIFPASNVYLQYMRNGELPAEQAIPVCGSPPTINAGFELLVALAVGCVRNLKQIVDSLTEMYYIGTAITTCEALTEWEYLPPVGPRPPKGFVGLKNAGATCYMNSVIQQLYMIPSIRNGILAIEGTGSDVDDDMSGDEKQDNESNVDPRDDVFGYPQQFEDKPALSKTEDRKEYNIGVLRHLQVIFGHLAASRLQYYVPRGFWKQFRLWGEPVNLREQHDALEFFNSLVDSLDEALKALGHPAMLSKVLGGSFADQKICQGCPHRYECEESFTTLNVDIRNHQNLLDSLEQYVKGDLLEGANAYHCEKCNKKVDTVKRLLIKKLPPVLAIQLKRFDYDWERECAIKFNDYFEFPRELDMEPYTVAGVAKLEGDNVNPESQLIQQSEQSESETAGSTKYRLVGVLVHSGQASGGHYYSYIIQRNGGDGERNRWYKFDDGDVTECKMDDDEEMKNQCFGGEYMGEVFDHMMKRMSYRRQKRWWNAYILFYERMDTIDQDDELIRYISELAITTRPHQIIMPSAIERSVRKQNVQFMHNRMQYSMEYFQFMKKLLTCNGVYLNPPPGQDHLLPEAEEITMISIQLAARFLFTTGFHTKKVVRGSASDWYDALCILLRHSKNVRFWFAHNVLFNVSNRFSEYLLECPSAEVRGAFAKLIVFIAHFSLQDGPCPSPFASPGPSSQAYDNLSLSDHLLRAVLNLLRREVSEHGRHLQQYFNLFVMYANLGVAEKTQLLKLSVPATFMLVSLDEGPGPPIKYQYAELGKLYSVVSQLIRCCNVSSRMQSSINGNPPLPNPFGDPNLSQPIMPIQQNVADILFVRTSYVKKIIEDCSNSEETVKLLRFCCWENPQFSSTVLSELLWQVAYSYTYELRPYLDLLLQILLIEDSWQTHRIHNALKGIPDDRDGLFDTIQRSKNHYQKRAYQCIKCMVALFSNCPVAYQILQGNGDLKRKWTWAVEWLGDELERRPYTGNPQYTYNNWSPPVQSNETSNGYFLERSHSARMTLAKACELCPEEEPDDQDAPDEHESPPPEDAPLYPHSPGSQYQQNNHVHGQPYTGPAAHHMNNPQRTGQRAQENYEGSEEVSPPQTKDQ

Assays:
[1] = biological target: FLAG-IRS-1 (rat) (UniProt P35570); test: co-IP; HEK293 cells expressing FLAG-IRS-1 or FLAG-IRS-2, serum-free 24 h; lysates immunoprecipitated with anti-FLAG antibody (FLAG-agarose beads), western blot for USP9X
[2] = biological target: IGF-IR-FLAG (UniProt P08069); test: co-IP; HEK293T cells expressing IGF-IR-FLAG or FLAG alone; immunoprecipitation and western blotting with indicated antibodies
[3] = biological target: IRS-1, endogenous in PC3 cells (human (endogenous in PC3)) (UniProt P35568); test: co-IP; endogenous proteins of PC3 cells, serum-starved 24 h, without or with 100 ng/ml IGF-I for 5 min; immunoprecipitation and western blotting with indicated antibodies

## ubiquitin specific peptidase 9X (USP9X), endogenous in HEK293 cells (from UniProt Q93008 1-2554) (enzyme)
[1]
  binding: binds

## ubiquitin specific peptidase 9X (USP9X), endogenous in HEK293T cells (from UniProt Q93008 1-2554) (enzyme)
[2]
  binding: binds

## ubiquitin specific peptidase 9X (USP9X), endogenous in PC3 cells (from UniProt Q93008 1-2554) (enzyme)
[3]
  binding: binds
